For experiment [1], the target named is CRX (cone rod homeobox protein) (UniProt O43186). As to the kind of experiment: co-IP.
Experiment [2] deals with NR2E3 (photoreceptor-specific orphan nuclear receptor) (UniProt Q9Y5X4). As to the kind of experiment: co-IP.

The chains behind the UniProt entries cited, without tags or fusion partners. Where a name states a change or a piece, a line headed by the entry shows the natural chain unless it says otherwise.
UniProt O43186: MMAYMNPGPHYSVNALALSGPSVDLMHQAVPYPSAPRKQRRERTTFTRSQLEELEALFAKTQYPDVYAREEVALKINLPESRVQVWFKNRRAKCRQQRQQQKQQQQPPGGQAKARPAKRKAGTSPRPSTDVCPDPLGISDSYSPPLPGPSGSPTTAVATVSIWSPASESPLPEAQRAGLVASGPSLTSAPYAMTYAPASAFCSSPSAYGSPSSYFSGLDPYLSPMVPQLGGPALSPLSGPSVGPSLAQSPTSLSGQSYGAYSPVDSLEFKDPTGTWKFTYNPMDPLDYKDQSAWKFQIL
UniProt Q9Y5X4: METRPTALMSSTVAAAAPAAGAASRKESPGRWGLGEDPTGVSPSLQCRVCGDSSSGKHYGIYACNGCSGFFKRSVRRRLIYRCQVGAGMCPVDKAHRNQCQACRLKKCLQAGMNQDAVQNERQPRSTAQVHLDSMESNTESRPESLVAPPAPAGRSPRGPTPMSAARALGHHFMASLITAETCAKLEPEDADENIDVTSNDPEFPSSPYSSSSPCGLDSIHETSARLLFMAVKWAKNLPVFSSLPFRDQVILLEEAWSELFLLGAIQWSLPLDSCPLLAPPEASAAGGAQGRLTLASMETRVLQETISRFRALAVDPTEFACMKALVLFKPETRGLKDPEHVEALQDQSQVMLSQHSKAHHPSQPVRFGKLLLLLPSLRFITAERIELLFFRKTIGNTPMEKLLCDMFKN
UniProt P54845: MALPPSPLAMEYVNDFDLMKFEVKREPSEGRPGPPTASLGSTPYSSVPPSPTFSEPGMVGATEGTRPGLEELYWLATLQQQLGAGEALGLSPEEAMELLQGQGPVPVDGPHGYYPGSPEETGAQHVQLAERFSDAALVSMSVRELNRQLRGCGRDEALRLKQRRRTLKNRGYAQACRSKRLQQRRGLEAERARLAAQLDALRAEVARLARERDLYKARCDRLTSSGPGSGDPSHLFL

These are yes or no findings as the source states them, for the method shown. In cells and extracts the contact can be indirect. Some binding calls cover weakened binding; strength is not graded here.

On to “human NRL mutant p.P51S (Xpress-tagged) (from UniProt P54845 1-237)”, for which the binding result in experiment [1] and in experiment [2] was “binds” throughout.

For the substance “human NRL mutant p.S50T (Xpress-tagged) (from UniProt P54845 1-237)”, the binding result in experiment [1] and in experiment [2] was “binds” throughout.

“wild-type human NRL (Xpress-tagged, from pcDNA4 His/Max C) (from UniProt P54845 1-237)”: the binding entry in experiment [1] and in experiment [2] was “binds” in each case.

The record behind these values is US20100136537A1, “PHOTORECEPTOR PRECURSOR CELLS” (THE REGENTS OF THE UNIVERSITY OF MICHIGAN, priority 2006, published 2010).
